Results are given in words; binding and its absence hold for the method and conditions named. In cells and extracts the contact can be indirect. Here binding means that the protein was enriched with, or labelled near, the bait; the list need not be complete. For some assays here: No binding means not detected with the bait. Sequences can lack the tags named with a protein.
T1: Tudor staphylococcal nuclease 2 with C-terminal TAPa tag (TSN2‐TAPa) (Arabidopsis thaliana) (UniProt Q9FLT0)
T1 sequence: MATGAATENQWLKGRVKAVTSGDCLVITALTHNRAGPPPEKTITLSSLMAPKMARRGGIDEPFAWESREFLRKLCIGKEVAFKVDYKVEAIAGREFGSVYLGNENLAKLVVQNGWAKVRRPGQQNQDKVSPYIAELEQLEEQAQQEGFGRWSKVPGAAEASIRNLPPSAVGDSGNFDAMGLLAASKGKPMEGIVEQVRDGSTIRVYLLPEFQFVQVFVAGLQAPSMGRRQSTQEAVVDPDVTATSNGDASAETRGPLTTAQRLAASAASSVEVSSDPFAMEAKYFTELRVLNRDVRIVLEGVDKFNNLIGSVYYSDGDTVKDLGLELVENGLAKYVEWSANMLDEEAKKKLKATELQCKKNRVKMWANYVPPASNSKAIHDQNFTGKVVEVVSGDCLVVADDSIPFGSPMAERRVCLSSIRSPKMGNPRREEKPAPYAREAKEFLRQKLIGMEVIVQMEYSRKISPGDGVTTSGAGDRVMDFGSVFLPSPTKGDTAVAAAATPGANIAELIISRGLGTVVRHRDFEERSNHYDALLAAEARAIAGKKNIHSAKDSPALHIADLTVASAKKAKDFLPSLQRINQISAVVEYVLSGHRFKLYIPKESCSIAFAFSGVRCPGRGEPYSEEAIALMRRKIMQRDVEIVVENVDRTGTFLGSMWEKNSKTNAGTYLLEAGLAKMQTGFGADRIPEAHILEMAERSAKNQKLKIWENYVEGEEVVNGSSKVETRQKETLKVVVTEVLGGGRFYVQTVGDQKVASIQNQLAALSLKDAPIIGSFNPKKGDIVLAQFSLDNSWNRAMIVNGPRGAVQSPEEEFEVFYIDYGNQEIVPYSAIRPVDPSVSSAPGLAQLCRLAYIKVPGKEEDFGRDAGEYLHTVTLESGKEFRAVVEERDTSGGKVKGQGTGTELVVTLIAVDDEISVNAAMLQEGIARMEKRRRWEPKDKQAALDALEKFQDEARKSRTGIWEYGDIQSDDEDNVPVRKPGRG

Sequences of proteins named here, by UniProt entry; tags and fusion partners are left off. Residues count along the entry.
UniProt Q39043, residues 24-668: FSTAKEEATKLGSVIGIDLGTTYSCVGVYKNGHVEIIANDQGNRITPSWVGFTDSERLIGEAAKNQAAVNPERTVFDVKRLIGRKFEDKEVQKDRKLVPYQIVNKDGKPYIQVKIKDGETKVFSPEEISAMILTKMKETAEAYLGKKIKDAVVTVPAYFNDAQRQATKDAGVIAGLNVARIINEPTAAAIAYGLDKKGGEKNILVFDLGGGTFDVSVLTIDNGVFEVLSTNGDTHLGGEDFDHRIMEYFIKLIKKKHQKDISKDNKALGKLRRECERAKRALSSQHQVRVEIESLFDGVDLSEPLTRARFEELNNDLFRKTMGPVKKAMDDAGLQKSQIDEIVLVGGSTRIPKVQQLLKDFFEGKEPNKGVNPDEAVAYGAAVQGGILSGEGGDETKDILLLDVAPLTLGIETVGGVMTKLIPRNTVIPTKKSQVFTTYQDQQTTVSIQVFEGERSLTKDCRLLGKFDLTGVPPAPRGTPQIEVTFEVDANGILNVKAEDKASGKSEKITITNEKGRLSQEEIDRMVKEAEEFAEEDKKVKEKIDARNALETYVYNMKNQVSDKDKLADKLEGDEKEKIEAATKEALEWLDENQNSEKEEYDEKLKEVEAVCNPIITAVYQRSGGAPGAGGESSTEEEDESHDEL
UniProt P18616: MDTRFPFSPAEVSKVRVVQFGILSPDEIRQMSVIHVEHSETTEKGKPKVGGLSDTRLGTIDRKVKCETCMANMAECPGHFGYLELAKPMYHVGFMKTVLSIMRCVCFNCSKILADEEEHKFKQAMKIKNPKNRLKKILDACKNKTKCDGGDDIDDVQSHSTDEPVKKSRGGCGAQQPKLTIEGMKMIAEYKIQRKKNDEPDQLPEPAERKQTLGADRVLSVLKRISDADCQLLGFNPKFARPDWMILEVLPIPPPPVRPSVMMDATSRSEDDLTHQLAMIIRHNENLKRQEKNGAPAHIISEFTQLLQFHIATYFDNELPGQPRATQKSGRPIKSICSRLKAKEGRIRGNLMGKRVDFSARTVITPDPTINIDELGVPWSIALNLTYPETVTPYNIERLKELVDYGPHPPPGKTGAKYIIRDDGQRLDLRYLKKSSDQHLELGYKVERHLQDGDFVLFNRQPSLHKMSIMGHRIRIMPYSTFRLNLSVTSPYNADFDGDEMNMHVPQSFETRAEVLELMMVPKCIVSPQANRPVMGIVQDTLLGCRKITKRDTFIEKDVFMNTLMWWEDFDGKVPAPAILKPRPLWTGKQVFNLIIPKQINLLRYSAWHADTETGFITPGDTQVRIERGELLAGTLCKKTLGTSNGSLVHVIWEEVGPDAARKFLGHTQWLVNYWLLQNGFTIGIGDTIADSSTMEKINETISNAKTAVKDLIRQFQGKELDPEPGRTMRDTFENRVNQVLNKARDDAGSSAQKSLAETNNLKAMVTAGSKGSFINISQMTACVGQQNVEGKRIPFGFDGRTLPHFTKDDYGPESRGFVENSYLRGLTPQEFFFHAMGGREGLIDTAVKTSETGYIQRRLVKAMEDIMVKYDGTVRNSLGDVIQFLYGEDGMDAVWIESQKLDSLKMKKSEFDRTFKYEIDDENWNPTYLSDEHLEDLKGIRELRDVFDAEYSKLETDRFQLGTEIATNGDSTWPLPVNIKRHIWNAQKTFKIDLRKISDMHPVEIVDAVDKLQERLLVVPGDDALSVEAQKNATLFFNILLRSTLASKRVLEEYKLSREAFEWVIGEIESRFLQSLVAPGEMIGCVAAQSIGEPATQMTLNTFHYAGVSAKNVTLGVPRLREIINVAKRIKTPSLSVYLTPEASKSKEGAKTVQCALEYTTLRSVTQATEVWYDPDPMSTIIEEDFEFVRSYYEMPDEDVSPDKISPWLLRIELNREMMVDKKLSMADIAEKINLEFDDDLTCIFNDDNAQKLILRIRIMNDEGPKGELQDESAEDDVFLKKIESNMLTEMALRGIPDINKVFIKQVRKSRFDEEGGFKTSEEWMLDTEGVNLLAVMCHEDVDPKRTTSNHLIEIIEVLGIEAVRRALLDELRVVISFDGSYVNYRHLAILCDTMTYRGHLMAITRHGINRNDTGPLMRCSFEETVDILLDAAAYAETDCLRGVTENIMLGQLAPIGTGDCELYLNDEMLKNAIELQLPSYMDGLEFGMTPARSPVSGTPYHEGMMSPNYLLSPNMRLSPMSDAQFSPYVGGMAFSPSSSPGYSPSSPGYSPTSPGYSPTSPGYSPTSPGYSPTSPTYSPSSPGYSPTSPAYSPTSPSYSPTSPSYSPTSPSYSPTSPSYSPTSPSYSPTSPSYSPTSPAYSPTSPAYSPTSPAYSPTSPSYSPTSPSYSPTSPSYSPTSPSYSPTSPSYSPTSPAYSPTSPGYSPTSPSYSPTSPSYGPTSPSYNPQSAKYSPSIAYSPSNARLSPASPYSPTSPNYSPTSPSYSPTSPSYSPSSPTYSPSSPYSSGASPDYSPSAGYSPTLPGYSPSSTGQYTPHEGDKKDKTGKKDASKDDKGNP
UniProt P55852: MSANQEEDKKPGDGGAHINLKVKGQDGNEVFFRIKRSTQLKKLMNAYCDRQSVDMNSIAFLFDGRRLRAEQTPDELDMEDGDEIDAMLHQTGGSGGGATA
UniProt Q9FLP6: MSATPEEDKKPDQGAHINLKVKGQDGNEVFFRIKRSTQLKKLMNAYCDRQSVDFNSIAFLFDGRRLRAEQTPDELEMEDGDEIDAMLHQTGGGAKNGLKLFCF


Legend:
[1] = molecular target: T1, Tudor staphylococcal nuclease 2 with C-terminal TAPa tag (TSN2‐TAPa) (Arabidopsis thaliana); experiment: affinity purification with mass spectrometry; TAPa: TSN2-TAPa or TSN1-TAPa as bait from leaves of 18-day-old Arabidopsis; IgG beads, 3C protease elution, Ni-NTA; 50 mM Tris-HCl pH 7.5, 150 mM NaCl, 10% glycerol, 0.1% Nonidet P-40, 4°C; label-free LC-MS/MS (iBAQ), enrichment against GFP-TAPa; plants at 23°C (NS), 39°C for 60 min (HS) or 200 mM NaCl for 5 h
[2] = molecular target: T1, Tudor staphylococcal nuclease 2 with C-terminal TAPa tag (TSN2‐TAPa) (Arabidopsis thaliana); experiment: affinity purification with mass spectrometry; TAPa with TSN2-TAPa as in a1, plants without stress (23°C): TSN2_NS pool

binding [1]	binding [2]	Molecule
binds		BIP2 (from UniProt Q39043 24-668)
binds		HSP70
binds		MCA‐Ia
binds	no binding (only without stress (23°C))	NRPB1 (DNA‐directed RNA polymerase II subunit) (from UniProt P18616 1-1839)
binds		RNA‐binding protein 47 (RBP47)
binds		SKP1
binds		SUMO1 (from UniProt P55852 1-100)
binds		SUMO2 (from UniProt Q9FLP6 1-103)
binds	no binding (only without stress (23°C))	eEF1B (subunit of eEF1 elongation factor)
binds	no binding (only without stress (23°C))	eEF1Bγ (subunit of eEF1 elongation factor)
binds		eIF4E5
binds		SnRK1α1 (α‐catalytic subunit of SNF1‐related protein kinase 1) (protein, UniProt Q38997 1-512) MDGSGTGSRSGVESILPNYKLGRTLGIGSFGRVKIAEHALTGHKVAIKILNRRKIKNMEMEEKVRREIKILRLFMHPHIIRLYEVIETPTDIYLVMEYVNSGELFDYIVEKGRLQEDEARNFFQQIISGVEYCHRNMVVHRDLKPENLLLDSKCNVKIADFGLSNIMRDGHFLKTSCGSPNYAAPEVISGKLYAGPEVDVWSCGVILYALLCGTLPFDDENIPNLFKKIKGGIYTLPSHLSPGARDLIPRMLVVDPMKRVTIPEIRQHPWFQAHLPRYLAVPPPDTVQQAKKIDEEILQEVINMGFDRNHLIESLRNRTQNDGTVTYYLILDNRFRASSGYLGAEFQETMEGTPRMHPAESVASPVSHRLPGLMEYQGVGLRSQYPVERKWALGLQSRAHPREIMTEVLKALQDLNVCWKKIGHYNMKCRWVPNSSADGMLSNSMHDNNYFGDESSIIENEAAVKSPNVVKFEIQLYKTRDDKYLLDLQRVQGPQFLFLDLCAAFLAQLRVL
binds		RENT1 (protein, UniProt Q9FJR0 1-1254) MDSQQSDLFDTASQPDTVADEYTFLEFNTQGDSEFDYQDFGSPTAWPTPSDSISIADVADRGEGGAAADHHSEASSPSSLSAGAGNGAKVGRGGVGGSGGVSSSSQVDALAAGVGNLNFEETGDDDGFDYGKNDFTEHACKYCGISNPACVVRCNVASCRKWFCNSRGNTSGSHIVNHLVRAKHKEVCLHRDSPLGETILECYNCGCRNVFLLGFISAKTDSVVVLLCRDPCLNVNALKDMNWDLSQWCPLIDDRCFLPWLVKVPSEQEQLRARQISAQQINKIEELWKTNPDATLEDLEKPGVDDEPQPVQPKYEDAYQYQNVFAPLIKLEADYDKMMKESQSKENLTVRWDIGLNKKRVAYFVFPKEENELRLVPGDELRLRYSGDAVHPSWQSVGHVIKLTAQEEVALELRANQGVPIDVNHGFSVDFVWKSTSFDRMQGAMKNFAVDETSVSGYIYHQLLGHEVEAQMVRNTLPRRFGVPGLPELNASQVNAVKSVLQKPISLIQGPPGTGKTVTSAAIVYHMAKQGQGQVLVCAPSNVAVDQLAEKISATGLKVVRLCAKSREAVSSPVEYLTLHYQVRHLDTSEKSELHKLQQLKDEQGELSSSDEKKYKNLKRATEREITQSADVICCTCVGAADLRLSNFRFRQVLIDESTQATEPECLIPLVLGVKQVVLVGDHCQLGPVIMCKKAARAGLAQSLFERLVTLGIKPIRLQVQYRMHPALSEFPSNSFYEGTLQNGVTIIERQTTGIDFPWPVPNRPMFFYVQLGQEEISASGTSYLNRTEAANVEKLVTAFLKSGVVPSQIGVITPYEGQRAYIVNYMARNGSLRQQLYKEIEVASVDSFQGREKDYIILSCVRSNEHQGIGFLNDPRRLNVALTRARYGIVILGNPKVLSKQPLWNGLLTHYKEHECLVEGPLNNLKQSMVQFQKPRKIYNDRRLFYGGGAGMIGNDNFGSGNPNADRRGSRGRAGGSYLPSGPPNGARPGLHPAGYPIPRVPLSPFPGGPPSQPYAIPTRGPVGAVPHAPQPGNHGFGAGRGTSVGGHLPHQQATQHNVGTIGPSLNFPLDSPNSQPSPGGPLSQPGYGSQAFRDGFSMGGISQDFLADDIKSQGSHDPYNMADFATQASPGGFAVDYATQGAHGAFPGNFMNQNSQGGYSRFSGINDFMSQEYMAHGGQGLFTQAGFIDSSQDDGQQNPYGVNNPNLQSQGLPNSLYSQPFAHYNTQPLNLSGPQQSQPNQSSQNPKHPYNG
binds	no binding (only without stress (23°C))	HEN4 (protein, UniProt F4KDN0 1-857) MERNSVKFHAEKRSGAFDPGSGFGSSKRVKTHHTQLLSALVVPVGHAAFRLLCPLSHVGAVIGKSGNVIKQLQQSTGAKIRVEEPPSGSPDRVITIIAQADSKSRVKLGANNNGNAEGEKKEEEVEVSKAQGALIKVFELLAAEADSDTVVCRLLTESSHAGAVIGKGGQMVGSIRKETGCKISIRIENLPICADTDDEMVEVEGNAIAVKKALVSISRCLQNCQSIDKVRMVGNRPLEKEFQASLHRPIETIIQESLPRSVEVNPYDYRLRNDEIFPRGTVARANDVIPHDTLHLRRIEAVPQGALRMHIEADRQDVLRRHVEADRQDALRRRIDVVPQETLYMPSDVLRGDCFRQHRERDDSHDSLHRPFEMVPRDAMGMPFESFPRDAYGRPIETMTQETLRGQSADYLAHRYSTLDTHPHSFTTSASMANTATMKPPPSEVEVGNQDVVFKILCSTENAGGVIGTGGKVVRMLHSETGAFINVGNTLDDCEERLIAVTASENPECQSSPAQKAIMLIFSRLFELATNKILDNGPRSSITARLVVPTSQIGCVLGKGGVIVSEMRKTTGAAIQILKVEQNPKCISENDQVVQITGEFPNVREAIFHITSRLRDSVFSNSMKNSLAKSSSALTTERFYDRQSDNPLSIGSHQSVSNPATNSSSLHRRSEDSFLSGSHSSVNYSRSVGTDPYIRPEDPFPDRFNPSAGYSHNFGRRFTMDHSDNSHHLTEAPSRLWASPPPAAPRGLSDASGGLSSARAGHVLGSGHKSAIVTNTTVEIRVPANAMSFVYGEQGYNLEQLRQISGARVIIHEPPLGTSDRIIVISGTPDQTQAAQNLLHAFILTGETSLSKKYNLN
binds	no binding (only without stress (23°C))	BRN1 (protein, UniProt Q8LFS6 1-441) MAEAKEENREKNEEEESVKLFVGQIPKHMSESQLLTLFQEFAVVDEVNIIKDKITRASRGCCFLLCPSREEADKLVNACHNKKTLPGANSLLQVKYADGELERLEHKLFVGMLPKNVSEAEVQSLFSKYGTIKDLQILRGAQQTSKGCAFLKYETKEQAVSAMESINGKHKMEGSTVPLVVKWADTERERHTRRLQKAQSHIARLGNGDPTNPSLFGALPMGYVPPYNGYGYHQPPGTYGYMLPPIQNQAAFSNMIAQPNQGNNNALQGTSPDSVPPRLARRNFPMPPGNYMGSGYPAMRGHPFPFAYPRGIVSPRPLSSSPGSISPGMSTPLGIGLSSVVQTEGPEGANLFIYNIPREFGDQELAAAFQSFGIVLSAKVFVDKATGVSKCFGFVSYDSQAAAQNAIDMMNGRHLGGKKLKVQLKRDSNNGQPSSNPSLIS

— paper PMC8447601
